Laboratory results from patent US20140377379A1, “METHOD FOR PROGNOSING THE AGE-AT-ONSET OF HUNTINGTON'S DISEASE” (Institut National de la Sante et de la Recherche Medicale …, priority 2010, published 2014).
At least one compound was matched to its structure with a doubt left.

Legend:
[1] = test system: 128Q nematodes (expanded polyQ in touch receptor neurons); assay: Touch test (response to light touch at the tail) in 128Q nematodes; assay type: in vivo, C. elegans
Experimental: (§1) The wild-type strain of C. elegans used was Bristol N2. Standard methods of culturing and handling worms were used. All strains were scored at 20° C. Touch tests, scoring of PLM cell processes, drug response assays and quantitative Real-Time PCR were performed as previously described (Parker et al. 2005 Nat Genet. 37:349-350). Western analysis was performed using standard protocols and htt fusion proteins detected with the GFP antibody ab6556 (Abcam). Mutations and transgenes used in this study were: aak-2(ok524), bar-1(ga80), cfz-2(ok 1201), cst-1(tm1900), ctl-2(ok1137), cwn-1(ok546), cwn-2(ok895), daf-2(e1370), daf-16(mgD150), dhc-1(or195), dnc-1(or 404), egl-20(n585), ftt-2(n4426), geln3[sir-2.1(+)], igls1[mec-3::htt57Q128::CFP;mec-7::YFP;lin-15(+)], igls245[mec-3::htt57Q19::CFP; mec-7::YFP; lin-15(+)]. lin-17(n671), lin-44(n1792), mig-1(e1787), pop-1(q624), rrf-3(pk1426), sir-2.1(ok434), sod-3(gk235) and ucp-4(ok 195). […]
(§2) Touch tests involved scoring for the response to light touch at the tail by using a fine hair. […] The responses were recorded for every animal such that, for example, 3 responses out of 10 at the tail is given as 30% responsiveness, and the mean values for responsiveness were retained for comparison of nematode groups.

[2] = test system: 19Q nematodes (normal polyQ); assay: Touch test in 19Q control nematodes; assay type: in vivo, C. elegans
Experimental: as §1, §2

## [Li] [lithium]
[1]; 128Q, daf-16 mutants
  rescuing activity of lithium, dependence on daf-16: requires the activity of the longevity-promoting gene daf-16/FoxO
[1]; micromolar to nanomolar concentrations of lithium
  expanded-polyQ toxicity in C. elegans neurons: strongly reduces expanded-polyQ toxicity in C. elegans neurons
[2]
  effect on normal polyQ (19Q) controls, touch response: no effect on normal polyQ toxicity
